Data on 16 targets can be found in the supplement of paper PMC10849652.

By UniProt entry, the sequences of proteins in these tests, tags left out. Where a name states a change or a piece, a line headed by the entry shows the natural chain unless it says otherwise.
UniProt O75478: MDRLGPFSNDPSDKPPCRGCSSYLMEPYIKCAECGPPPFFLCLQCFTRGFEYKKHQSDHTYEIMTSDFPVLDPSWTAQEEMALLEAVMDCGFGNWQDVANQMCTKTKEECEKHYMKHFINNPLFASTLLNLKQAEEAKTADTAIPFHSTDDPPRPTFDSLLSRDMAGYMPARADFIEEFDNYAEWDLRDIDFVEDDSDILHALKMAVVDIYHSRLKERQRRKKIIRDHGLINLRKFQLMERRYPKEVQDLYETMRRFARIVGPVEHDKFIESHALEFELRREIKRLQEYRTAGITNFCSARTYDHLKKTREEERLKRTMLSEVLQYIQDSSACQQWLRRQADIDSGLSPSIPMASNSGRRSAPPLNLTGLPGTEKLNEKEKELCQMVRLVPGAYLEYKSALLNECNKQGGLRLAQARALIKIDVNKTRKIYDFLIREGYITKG
UniProt Q9H668: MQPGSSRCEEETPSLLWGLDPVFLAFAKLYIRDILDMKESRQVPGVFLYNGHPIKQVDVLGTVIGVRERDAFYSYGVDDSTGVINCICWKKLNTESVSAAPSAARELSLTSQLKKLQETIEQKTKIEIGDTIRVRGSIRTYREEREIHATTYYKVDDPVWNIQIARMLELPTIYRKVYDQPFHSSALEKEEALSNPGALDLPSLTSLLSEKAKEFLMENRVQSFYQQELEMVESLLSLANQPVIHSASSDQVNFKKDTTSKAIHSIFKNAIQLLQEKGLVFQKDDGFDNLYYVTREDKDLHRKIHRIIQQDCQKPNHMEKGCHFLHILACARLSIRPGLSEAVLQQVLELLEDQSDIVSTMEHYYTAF
UniProt Q6PIF2: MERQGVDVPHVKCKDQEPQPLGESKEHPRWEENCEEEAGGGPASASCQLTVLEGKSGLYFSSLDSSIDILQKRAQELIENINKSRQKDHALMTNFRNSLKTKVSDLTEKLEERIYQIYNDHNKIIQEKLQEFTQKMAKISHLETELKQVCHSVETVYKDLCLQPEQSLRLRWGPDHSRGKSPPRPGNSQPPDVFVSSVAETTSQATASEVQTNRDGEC
UniProt Q15572: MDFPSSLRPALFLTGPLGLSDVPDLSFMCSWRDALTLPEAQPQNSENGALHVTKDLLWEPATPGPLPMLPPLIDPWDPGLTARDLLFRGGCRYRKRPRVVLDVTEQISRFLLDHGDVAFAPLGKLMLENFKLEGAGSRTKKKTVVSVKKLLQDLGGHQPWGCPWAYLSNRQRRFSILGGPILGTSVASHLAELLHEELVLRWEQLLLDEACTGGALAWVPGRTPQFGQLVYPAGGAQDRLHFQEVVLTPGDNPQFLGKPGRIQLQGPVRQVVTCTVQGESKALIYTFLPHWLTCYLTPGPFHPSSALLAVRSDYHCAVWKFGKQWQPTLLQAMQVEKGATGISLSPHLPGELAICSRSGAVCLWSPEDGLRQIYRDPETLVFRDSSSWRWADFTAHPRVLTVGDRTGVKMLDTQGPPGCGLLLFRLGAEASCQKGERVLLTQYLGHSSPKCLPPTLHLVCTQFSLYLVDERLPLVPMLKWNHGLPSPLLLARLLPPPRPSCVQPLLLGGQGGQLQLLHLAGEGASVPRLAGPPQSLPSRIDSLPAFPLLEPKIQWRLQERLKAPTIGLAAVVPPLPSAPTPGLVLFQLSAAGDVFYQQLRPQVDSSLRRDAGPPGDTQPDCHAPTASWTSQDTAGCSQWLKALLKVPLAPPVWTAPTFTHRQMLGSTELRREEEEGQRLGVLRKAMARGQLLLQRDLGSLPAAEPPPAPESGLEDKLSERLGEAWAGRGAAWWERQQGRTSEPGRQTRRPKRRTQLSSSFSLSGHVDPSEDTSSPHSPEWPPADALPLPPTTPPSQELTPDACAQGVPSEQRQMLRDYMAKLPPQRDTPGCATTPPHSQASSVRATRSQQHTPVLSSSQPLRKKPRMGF
UniProt O94804: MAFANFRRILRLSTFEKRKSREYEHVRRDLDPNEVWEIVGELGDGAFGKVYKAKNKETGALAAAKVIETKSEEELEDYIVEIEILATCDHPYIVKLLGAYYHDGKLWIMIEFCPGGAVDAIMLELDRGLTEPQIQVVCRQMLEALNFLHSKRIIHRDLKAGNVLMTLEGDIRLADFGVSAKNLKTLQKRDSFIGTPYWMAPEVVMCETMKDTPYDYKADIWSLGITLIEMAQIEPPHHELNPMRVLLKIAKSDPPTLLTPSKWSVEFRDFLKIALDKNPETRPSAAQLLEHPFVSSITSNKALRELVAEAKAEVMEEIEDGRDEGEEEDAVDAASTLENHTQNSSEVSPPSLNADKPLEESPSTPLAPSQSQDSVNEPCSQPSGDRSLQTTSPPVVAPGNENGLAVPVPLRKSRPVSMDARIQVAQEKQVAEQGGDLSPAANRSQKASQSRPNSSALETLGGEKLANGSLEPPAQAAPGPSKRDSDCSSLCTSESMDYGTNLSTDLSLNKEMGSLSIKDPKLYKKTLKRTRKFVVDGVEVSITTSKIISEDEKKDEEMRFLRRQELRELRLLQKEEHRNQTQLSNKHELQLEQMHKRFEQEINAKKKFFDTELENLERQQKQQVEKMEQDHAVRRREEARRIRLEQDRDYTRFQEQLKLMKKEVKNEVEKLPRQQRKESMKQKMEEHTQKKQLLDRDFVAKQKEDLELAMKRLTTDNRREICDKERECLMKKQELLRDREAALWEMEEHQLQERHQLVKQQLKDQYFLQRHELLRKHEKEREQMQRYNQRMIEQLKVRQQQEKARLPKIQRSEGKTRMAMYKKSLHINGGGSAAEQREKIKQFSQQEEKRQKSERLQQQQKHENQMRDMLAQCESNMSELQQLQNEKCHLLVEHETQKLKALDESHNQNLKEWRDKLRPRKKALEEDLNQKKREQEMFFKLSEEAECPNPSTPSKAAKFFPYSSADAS
UniProt Q15573: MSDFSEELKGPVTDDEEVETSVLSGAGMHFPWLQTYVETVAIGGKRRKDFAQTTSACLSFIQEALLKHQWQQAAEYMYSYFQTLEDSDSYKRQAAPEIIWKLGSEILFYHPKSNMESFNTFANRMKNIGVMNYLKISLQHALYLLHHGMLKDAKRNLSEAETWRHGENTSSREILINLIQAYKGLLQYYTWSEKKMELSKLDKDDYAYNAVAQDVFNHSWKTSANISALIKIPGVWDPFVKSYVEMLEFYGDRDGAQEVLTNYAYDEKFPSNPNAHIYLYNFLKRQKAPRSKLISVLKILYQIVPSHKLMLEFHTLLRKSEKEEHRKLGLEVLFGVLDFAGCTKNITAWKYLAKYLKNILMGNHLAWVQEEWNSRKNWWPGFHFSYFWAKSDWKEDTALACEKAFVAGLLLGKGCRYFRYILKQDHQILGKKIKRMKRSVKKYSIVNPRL
UniProt P49842: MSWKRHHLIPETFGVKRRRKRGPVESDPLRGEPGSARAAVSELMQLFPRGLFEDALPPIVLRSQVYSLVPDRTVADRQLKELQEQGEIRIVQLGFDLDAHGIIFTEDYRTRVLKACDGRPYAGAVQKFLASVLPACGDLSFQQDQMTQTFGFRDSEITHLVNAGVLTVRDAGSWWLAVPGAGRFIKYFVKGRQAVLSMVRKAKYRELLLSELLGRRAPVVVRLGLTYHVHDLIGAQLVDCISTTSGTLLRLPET
UniProt O43759: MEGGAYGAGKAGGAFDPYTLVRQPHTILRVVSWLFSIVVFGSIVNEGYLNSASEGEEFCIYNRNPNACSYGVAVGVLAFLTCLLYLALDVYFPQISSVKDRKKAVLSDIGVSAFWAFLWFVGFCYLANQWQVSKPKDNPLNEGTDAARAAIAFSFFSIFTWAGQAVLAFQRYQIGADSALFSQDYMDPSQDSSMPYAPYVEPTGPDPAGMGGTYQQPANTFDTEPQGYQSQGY
UniProt O60506: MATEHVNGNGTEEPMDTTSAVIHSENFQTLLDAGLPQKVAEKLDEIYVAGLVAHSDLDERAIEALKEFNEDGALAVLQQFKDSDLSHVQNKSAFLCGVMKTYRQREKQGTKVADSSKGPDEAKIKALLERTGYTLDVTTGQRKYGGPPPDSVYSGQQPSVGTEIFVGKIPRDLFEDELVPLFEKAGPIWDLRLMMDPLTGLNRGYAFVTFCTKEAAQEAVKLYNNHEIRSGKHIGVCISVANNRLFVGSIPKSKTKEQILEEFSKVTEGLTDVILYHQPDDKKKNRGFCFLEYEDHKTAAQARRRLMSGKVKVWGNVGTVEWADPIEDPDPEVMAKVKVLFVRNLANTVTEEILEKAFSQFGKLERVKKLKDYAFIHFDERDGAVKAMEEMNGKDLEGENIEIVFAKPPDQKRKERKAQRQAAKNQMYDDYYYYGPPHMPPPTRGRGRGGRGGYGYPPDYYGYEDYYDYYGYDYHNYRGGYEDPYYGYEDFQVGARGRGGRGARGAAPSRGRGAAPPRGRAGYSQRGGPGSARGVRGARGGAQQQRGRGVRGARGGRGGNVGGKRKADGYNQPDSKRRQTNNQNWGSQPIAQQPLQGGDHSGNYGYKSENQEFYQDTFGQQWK
UniProt Q9UEE5: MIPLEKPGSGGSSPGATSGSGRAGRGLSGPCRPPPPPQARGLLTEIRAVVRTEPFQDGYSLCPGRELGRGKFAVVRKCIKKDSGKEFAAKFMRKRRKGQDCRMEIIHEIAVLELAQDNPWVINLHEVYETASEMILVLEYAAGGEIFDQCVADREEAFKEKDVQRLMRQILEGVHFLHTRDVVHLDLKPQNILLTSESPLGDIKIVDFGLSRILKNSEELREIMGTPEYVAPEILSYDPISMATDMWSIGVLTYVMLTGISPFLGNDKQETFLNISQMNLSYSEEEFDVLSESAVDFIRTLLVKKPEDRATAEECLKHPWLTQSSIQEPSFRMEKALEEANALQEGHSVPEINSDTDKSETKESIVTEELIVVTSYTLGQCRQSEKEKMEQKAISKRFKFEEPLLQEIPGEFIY
UniProt Q9UBS9: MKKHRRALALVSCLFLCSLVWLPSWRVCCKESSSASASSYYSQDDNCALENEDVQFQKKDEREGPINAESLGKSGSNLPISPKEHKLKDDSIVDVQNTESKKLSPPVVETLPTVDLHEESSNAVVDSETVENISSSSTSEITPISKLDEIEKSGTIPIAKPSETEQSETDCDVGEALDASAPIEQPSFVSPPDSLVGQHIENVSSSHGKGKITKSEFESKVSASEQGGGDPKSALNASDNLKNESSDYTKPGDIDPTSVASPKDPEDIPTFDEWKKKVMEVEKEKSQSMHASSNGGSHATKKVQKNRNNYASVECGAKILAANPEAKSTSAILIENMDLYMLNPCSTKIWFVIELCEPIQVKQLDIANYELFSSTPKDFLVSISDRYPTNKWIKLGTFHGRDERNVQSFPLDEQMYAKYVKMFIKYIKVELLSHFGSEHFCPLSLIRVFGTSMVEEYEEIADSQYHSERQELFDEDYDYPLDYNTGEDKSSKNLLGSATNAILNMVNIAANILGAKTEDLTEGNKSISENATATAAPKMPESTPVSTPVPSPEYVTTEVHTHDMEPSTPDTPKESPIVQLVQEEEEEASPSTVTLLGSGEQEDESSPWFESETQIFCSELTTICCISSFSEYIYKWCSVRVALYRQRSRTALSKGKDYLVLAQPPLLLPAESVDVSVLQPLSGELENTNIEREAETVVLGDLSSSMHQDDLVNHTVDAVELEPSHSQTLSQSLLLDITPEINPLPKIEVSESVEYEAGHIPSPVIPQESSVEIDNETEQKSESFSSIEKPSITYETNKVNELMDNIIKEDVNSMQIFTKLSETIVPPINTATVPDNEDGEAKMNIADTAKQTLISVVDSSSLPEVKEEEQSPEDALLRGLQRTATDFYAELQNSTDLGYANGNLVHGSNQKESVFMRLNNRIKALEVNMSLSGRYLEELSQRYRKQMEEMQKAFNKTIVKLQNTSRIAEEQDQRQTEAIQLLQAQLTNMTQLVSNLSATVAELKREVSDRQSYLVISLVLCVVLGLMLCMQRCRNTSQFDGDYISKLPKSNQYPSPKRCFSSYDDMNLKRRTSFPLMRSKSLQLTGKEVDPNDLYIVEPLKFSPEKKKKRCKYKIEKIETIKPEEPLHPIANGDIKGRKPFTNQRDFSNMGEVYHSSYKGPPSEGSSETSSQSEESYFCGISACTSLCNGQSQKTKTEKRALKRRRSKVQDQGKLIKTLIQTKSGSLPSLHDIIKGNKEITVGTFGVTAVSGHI
UniProt O75486: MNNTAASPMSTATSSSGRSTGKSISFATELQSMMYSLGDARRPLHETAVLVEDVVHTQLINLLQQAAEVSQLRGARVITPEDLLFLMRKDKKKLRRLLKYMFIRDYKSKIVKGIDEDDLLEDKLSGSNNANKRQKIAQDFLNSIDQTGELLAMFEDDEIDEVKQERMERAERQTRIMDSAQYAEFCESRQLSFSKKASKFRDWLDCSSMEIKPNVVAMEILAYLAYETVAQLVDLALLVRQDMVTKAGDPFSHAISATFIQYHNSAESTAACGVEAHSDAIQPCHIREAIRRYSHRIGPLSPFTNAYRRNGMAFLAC

Holding throughout (experiment): log2 fold change, soluble protein after heating vs DMSO (PISA); higher = thermal stabilisation; K562 lysate, 10 uM; active = over 0.2 and 3.5 SD of the protein, either way, in both replicates (recomputed)
Compound in one test: Cc1cn(-c2cc(NC(=O)c3ccc(C)c(Nc4nccc(-c5cccnc5)n4)c3)cc(C(F)(F)F)c2)cn1 [nilotinib]
An outline of the steps:
(§1)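 Following dounce homogenisation of K562 pellets in PBS pH 7.4 with 1 mM MgCl2, crude extract at 1 mg/mL protein was incubated for 30 min with 10 μM compound. Aliquots were then heated for 3 min over 48°C-58°C and pooled, NP-40 was added to 0.5% at 4°C, and soluble protein was recovered as the supernatant at 21,000xg for 90 min. Channel-sum-equalised TMTpro 16plex LC-MS/MS quantified this protein. Each value, from duplicates, is a log-two fold change in thermal stability relative to solvent controls.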

Compound in test [1]: Cc1nc(Nc2n[nH]c3c2CN(C(=O)N[C@H](CN(C)C)c2ccccc2)C3(C)C)c2sccc2n1
An outline of the steps: as §1

Compound in test [2]: Cc1ncc(-c2ccnc(Nc3ccc(S(C)(=O)=O)cc3)n2)n1C(C)C
An outline of the steps: as §1

Compound in a further test: Cn1cc(CNCC2CCN(c3ncc(C(=O)NO)cn3)CC2)c2ccccc21 [quisinostat]
An outline of the steps:
as §1

Compound in a further test: Cn1cncc1[C@@](N)(c1ccc(Cl)cc1)c1ccc2c(c1)c(-c1cccc(Cl)c1)cc(=O)n2C [tipifarnib]
An outline of the steps:
as §1

Compound in test [3]: NC(=O)Nc1cc(-c2cccc(F)c2)sc1C(=O)N[C@H]1CCCNC1
An outline of the steps: as §1

Compound in test [4]: NC1(c2ccc(-c3nc4ccn5c(=O)[nH]nc5c4cc3-c3ccccc3)cc2)CCC1
An outline of the steps:
as §1

Compound in a further test: O=C(CCCCCCC(=O)Nc1ccccc1)NO [vorinostat]
An outline of the steps:
as §1

Compound in a further test: O=C(O)c1ccc2c(c1)nc(Nc1cccc(Cl)c1)c1ccncc12 [silmitasertib]
An outline of the steps:
as §1

Compound in test [5]: O=C1NC(=O)C(c2cnc3ccccn23)=C1c1cn2c3c(cc(F)cc13)CN(C(=O)N1CCCCC1)CC2
An outline of the steps: as §1

Compound in another test: Cc1nc(Nc2ncc(C(=O)Nc3c(C)cccc3Cl)s2)cc(N2CCN(CCO)CC2)n1 [dasatinib]
An outline of the steps:
as §1

Compound in test [6]: Cn1cc(-c2ccc3c(c2)CCN3C(=O)Cc2cccc(C(F)(F)F)c2)c2c(N)ncnc21
An outline of the steps: as §1

Compound in the next test: c1cn2cc(-c3ccc4cn[nH]c4c3)nc(Nc3ccc(N4CCOCC4)cc3)c2n1 [entospletinib]
An outline of the steps: as §1

Compound in test [7]: NC(=O)c1cnc(N[C@@H]2CCCC[C@@H]2N)nc1Nc1cccc(-n2nccn2)c1
An outline of the steps: as §1

Compound in test [8]: NCC(=O)Nc1ccc(-n2nc(C(F)(F)F)cc2-c2ccc3c(ccc4ccccc43)c2)cc1
An outline of the steps:
as §1

This is one part of the list.

With TADA2A (UniProt O75478), the log2 fold change is inactive: -0.066 with nilotinib; inactive: 0.018 in [1]; inactive: -0.019 in [2]; inactive: -0.132 with quisinostat; inactive: 0.017 with tipifarnib; inactive: 0.134 in test [3]. For the same target, the log2 fold change is inactive: 0.02 in [4], inactive: -0.311 with vorinostat, inactive: 0.053 with silmitasertib and inactive: -0.044 in test [5].
Regarding STK38L (UniProt Q9Y2H1), the log2 fold change with nilotinib is inactive: -0.08; in test [1] it was active: 0.68; with dasatinib, inactive: -0.002; in [2] it was inactive: -0.009; in test [6], inactive: 0.102; with quisinostat, inactive: -0.122. Further, the log2 fold change is inactive: 0.04 with tipifarnib; active: 0.552 in test [3]; inactive: -0.046 in test [4]; inactive: -0.162 with vorinostat; inactive: 0.184 in the test with silmitasertib; inactive: 0.022 in test [5]. In addition, the log2 fold change with entospletinib is inactive: 0.043.
On to STN1 (UniProt Q9H668), for which the log2 fold change in the test with nilotinib is inactive: -0.149; in [1], inactive: -0.071; in test [2], inactive: 0.034; with quisinostat, inactive: -0.104; with tipifarnib, inactive: 0.005; in test [3] it was inactive: 0.156. Also, the log2 fold change is inactive: 0.032 in test [7]; inactive: 0.02 in test [4]; inactive: -0.03 in test [8]; inactive: -0.2 in the test with vorinostat; inactive: -0.111 with silmitasertib; inactive: 0.126 in test [5]. For the same target, the log2 fold change with entospletinib was inactive: 0.049.
For SYCE2 (UniProt Q6PIF2), the log2 fold change with quisinostat is inactive: -0.118; in [3], inactive: 0.082; in test [5], inactive: -0.221.
With TAF1C (UniProt Q15572), the log2 fold change with nilotinib is inactive: -0.33; in test [1], inactive: -0.153; with dasatinib it was inactive: -0.036; in test [2], inactive: -0.089; in [6], inactive: 0.083; in the test with quisinostat, inactive: 0.219. Moreover, the log2 fold change in the test with tipifarnib is inactive: 0.141; in [3], inactive: -0.006; in test [8], inactive: 0.128; in [5], inactive: 0.088; with entospletinib it was inactive: 0.046.
Take STK10 (UniProt O94804): the log2 fold change was inactive: 0.168 with dasatinib; inactive: 0.007 in [6]; inactive: -0.462 with quisinostat; inactive: 0.234 in test [3]; inactive: -0.287 in test [4]; inactive: 0.149 with vorinostat. For the same target, the results for the log2 fold change (with silmitasertib; in test [5]) were inactive: -0.107 and inactive: 0.398, respectively.
With TAF1A (UniProt Q15573), the log2 fold change in the test with nilotinib was inactive: -0.112; in [1], inactive: -0.03; in [2], inactive: -0.091; in the test with tipifarnib, inactive: -0.136; in test [8], inactive: 0.05.
On to STK19 (UniProt P49842), for which the log2 fold change in the test with nilotinib was inactive: 0.112; in test [1], inactive: 0.222; with dasatinib it was inactive: 0.021; in test [2], inactive: -0.03; in test [6] it was inactive: -0.219; in the test with quisinostat it was inactive: 0.14. Besides, the log2 fold change with tipifarnib was inactive: -0.197; in test [3], inactive: -0.048; in [5] it was inactive: -0.11.
In the case of SYNGR1 isoform 2 (UniProt O43759), the log2 fold change was inactive: -0.059 in the test with quisinostat; inactive: 0.144 in [3]; inactive: -0.329 in [4]; inactive: -0.25 in the test with vorinostat; inactive: 0.138 with silmitasertib; inactive: -0.029 in test [5]. For the same target, in the test with entospletinib, the log2 fold change is inactive: -0.034.
On to STS (UniProt P08842), for which the log2 fold change was inactive: -0.032 with nilotinib; inactive: 0.079 in test [1]; inactive: -0.098 in test [2]; inactive: -0.061 in the test with quisinostat; inactive: 0.311 with tipifarnib; inactive: -0.009 in [3]. The log2 fold change in [8] was inactive: 0.214; in test [5], inactive: 0.208.
For the target STK16 (UniProt O75716), the log2 fold change with dasatinib was inactive: -0.003; in test [6] it was inactive: 0.105; with quisinostat it was inactive: 0.033; in [3] it was inactive: 0.225; in test [7] it was inactive: -0.107; in test [4] it was inactive: 0.16. For the same target, the log2 fold change was inactive: -0.099 in test [8]; inactive: -0.259 with vorinostat; inactive: 0.138 with silmitasertib; inactive: 0.232 in [5]; inactive: 0.189 in the test with entospletinib.
SYNCRIP isoform 3 (UniProt O60506): the log2 fold change was inactive: -0.08 in the test with nilotinib; inactive: -0.094 in [1]; inactive: -0.01 in [2]; inactive: 0.01 with quisinostat; inactive: -0.003 with tipifarnib; inactive: -0.053 in test [3]. Further, the log2 fold change was inactive: -0.184 in test [7]; inactive: -0.205 in [4]; inactive: 0.045 in test [8]; inactive: 0.044 with vorinostat; inactive: 0.202 with silmitasertib; inactive: -0.003 in test [5]. For the same target, the log2 fold change in the test with entospletinib is inactive: 0.019.
For STK17A (UniProt Q9UEE5), the log2 fold change in the test with nilotinib was inactive: 0.076; in test [1] it was inactive: 0.188; in test [2], inactive: 0.249; with tipifarnib, inactive: -0.387.
In the case of SUCO isoform 2 (UniProt Q9UBS9), the log2 fold change in the test with quisinostat was inactive: -0.092; in [3] it was inactive: 0.184; in test [8] it was inactive: 0.04; in [5], inactive: -0.227; with entospletinib it was inactive: -0.061.
STRN3 (UniProt H0YJT2): the log2 fold change with dasatinib was inactive: -0.037; in test [6], inactive: 0.13; with entospletinib it was inactive: -0.075.
On to SUPT3H (UniProt O75486), for which the log2 fold change is inactive: -0.145 with quisinostat; inactive: 0.004 in [3]; inactive: 0.055 in test [7]; inactive: -0.026 in test [4]; inactive: -0.239 with vorinostat; inactive: 0.048 with silmitasertib. Moreover, the log2 fold change is inactive: -0.074 in test [5] and inactive: -0.345 in the test with entospletinib.
